# In the supplement of paper PMC10032668:
# Amino acid sequences for entries named in this document (tags omitted).
# BUB1B, O60566, UniProt O60566, whole entry: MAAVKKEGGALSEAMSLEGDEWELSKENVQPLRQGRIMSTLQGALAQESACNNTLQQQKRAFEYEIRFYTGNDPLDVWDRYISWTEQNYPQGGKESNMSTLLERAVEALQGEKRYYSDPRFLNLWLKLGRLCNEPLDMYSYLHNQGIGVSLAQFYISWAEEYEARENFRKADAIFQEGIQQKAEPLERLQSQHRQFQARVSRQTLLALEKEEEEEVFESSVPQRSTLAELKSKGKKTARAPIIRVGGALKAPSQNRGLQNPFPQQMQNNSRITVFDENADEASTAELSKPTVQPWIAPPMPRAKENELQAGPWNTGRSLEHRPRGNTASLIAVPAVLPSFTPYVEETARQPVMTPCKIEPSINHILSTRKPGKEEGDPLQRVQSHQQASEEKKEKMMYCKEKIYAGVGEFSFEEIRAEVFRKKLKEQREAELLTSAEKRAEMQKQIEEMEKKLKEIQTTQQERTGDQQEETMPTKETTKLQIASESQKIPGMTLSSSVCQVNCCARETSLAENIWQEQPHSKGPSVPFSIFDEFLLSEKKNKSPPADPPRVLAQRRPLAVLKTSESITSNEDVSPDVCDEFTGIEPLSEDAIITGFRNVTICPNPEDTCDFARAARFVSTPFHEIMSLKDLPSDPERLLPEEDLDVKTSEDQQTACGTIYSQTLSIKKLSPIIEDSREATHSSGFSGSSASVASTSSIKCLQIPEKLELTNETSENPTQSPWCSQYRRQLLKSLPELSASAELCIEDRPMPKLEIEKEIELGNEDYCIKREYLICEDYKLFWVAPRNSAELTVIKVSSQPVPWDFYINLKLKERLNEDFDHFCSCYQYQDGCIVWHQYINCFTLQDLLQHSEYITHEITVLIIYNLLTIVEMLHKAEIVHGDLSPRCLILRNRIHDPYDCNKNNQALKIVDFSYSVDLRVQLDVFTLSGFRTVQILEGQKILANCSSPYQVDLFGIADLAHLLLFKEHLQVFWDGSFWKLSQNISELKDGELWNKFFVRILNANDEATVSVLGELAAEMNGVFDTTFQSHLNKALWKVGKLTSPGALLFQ
# CTNNB1, P35222, UniProt P35222, whole entry: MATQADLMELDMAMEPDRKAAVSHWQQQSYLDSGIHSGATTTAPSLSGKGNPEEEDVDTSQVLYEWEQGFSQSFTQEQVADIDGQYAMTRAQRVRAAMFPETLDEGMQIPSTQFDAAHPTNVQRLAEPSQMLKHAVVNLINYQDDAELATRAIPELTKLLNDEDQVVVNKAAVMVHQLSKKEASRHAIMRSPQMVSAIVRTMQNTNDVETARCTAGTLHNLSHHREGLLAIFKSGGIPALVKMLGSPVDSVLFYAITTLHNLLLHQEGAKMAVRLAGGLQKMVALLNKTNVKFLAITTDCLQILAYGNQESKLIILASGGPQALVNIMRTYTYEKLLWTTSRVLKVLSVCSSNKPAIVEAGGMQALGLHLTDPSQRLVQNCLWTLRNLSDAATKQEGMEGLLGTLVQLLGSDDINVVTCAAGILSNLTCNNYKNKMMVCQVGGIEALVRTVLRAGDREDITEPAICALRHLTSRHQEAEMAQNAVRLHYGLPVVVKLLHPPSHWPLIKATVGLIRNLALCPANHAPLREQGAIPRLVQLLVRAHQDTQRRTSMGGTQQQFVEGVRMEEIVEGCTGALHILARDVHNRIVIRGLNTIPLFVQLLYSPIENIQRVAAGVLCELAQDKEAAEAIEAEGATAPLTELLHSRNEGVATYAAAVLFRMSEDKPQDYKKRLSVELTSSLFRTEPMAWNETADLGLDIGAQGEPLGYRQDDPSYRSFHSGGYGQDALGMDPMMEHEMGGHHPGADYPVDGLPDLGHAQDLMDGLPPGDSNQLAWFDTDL
# NSUN2, Q08J23, UniProt Q08J23, whole entry: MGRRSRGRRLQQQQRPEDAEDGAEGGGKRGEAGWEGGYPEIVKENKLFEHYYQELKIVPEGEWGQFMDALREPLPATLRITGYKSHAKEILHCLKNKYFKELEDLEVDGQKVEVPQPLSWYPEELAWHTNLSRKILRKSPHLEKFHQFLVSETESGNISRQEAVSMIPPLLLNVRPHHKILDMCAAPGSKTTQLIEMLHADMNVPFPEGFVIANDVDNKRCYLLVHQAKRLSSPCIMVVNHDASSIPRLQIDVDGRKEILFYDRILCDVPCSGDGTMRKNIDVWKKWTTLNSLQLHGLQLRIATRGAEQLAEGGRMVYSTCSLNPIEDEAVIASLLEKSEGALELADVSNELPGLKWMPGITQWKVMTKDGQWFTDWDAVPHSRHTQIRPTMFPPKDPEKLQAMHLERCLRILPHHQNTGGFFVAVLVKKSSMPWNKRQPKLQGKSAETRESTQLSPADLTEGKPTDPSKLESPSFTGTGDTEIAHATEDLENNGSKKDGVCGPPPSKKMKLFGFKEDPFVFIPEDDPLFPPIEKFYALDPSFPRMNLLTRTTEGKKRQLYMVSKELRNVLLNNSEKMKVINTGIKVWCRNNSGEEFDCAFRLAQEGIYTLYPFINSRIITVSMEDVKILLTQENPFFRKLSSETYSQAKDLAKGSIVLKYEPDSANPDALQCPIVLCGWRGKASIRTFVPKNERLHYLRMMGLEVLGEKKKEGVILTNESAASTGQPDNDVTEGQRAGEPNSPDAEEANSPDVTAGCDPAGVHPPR
# OTUB1, Q96FW1, UniProt Q96FW1, whole entry: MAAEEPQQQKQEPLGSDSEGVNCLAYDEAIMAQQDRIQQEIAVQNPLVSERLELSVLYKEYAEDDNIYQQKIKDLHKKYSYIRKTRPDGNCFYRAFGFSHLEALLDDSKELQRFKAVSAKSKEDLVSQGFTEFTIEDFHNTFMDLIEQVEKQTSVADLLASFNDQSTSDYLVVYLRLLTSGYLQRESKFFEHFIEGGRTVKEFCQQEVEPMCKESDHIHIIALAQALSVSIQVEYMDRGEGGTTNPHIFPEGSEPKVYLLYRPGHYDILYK
# RANBP2, P49792, UniProt P49792, whole entry: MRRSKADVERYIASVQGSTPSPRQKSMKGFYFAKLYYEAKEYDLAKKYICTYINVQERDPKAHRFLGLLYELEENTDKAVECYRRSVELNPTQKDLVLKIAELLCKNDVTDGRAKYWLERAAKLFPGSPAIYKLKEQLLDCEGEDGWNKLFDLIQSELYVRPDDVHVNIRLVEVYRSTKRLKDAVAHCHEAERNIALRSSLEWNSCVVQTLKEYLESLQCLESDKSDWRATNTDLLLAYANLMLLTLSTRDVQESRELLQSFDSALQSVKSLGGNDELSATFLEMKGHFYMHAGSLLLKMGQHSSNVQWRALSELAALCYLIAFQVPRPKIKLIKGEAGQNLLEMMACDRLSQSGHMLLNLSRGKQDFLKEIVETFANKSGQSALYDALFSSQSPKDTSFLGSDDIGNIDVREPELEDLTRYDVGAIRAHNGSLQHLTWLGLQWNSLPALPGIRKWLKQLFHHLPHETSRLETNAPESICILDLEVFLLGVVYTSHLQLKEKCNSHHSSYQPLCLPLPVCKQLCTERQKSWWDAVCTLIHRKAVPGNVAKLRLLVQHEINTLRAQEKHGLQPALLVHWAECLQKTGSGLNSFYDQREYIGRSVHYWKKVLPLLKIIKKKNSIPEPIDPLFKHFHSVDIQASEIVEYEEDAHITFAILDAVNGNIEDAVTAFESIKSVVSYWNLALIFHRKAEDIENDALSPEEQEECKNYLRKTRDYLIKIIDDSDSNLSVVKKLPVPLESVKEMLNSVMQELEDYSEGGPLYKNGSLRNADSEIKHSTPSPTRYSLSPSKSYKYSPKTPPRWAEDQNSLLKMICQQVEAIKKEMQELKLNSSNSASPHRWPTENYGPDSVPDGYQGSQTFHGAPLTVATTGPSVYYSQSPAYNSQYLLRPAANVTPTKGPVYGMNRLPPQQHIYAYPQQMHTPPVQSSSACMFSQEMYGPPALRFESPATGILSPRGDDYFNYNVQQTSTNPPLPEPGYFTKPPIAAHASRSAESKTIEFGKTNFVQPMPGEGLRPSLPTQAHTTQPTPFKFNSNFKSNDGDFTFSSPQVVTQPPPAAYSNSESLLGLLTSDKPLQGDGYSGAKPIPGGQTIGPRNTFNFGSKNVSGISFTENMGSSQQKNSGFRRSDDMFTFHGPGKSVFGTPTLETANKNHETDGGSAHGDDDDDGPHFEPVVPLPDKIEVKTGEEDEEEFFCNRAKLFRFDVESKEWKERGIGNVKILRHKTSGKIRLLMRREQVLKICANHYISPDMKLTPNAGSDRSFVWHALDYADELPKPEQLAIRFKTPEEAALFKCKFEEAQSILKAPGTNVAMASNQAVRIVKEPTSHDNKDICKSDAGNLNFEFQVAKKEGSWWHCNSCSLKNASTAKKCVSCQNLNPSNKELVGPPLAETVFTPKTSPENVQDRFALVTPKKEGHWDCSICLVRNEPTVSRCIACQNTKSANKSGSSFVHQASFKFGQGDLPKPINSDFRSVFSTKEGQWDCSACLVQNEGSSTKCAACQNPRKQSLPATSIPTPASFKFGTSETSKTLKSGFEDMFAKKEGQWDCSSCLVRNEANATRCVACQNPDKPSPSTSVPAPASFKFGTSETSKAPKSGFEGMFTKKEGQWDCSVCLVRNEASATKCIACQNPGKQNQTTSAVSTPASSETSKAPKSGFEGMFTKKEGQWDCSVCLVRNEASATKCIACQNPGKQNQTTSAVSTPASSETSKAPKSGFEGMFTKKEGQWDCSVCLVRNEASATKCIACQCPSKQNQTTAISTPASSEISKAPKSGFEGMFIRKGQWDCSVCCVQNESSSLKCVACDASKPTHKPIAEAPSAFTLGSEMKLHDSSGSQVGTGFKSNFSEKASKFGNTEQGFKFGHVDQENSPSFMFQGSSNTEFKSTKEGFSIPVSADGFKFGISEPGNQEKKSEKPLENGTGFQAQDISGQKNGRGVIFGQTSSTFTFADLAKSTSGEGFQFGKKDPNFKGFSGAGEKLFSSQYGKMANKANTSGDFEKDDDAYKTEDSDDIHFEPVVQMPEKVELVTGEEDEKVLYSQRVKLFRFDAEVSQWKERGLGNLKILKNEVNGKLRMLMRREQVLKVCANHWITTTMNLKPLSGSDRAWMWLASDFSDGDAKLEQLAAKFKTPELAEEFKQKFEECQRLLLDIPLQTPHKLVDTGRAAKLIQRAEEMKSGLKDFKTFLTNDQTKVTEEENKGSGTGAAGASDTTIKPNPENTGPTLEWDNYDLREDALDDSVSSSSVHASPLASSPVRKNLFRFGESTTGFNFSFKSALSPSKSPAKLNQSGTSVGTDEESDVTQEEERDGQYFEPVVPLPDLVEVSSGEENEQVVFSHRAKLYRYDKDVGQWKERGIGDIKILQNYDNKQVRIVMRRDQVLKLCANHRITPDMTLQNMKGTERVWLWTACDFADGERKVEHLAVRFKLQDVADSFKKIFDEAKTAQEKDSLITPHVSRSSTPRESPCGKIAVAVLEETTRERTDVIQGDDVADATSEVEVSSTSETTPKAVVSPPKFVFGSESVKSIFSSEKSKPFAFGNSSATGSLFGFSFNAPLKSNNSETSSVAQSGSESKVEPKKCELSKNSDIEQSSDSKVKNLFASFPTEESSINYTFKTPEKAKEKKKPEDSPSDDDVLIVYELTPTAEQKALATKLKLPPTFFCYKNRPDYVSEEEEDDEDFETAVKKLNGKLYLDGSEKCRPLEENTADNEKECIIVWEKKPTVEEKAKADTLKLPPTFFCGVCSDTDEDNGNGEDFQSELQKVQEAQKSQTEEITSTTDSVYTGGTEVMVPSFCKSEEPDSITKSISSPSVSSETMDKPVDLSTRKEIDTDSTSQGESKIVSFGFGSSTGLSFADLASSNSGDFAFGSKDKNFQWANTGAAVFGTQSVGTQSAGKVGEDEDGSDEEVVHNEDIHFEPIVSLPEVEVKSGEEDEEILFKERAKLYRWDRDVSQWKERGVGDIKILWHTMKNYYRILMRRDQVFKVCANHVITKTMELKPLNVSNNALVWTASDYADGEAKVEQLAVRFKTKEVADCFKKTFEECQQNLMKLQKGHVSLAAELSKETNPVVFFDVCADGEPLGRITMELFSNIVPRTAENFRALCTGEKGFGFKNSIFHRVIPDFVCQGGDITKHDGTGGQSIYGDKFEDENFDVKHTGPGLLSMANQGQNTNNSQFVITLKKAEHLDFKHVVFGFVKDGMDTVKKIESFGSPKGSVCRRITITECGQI
# TARDBP, Q13148, UniProt Q13148, whole entry: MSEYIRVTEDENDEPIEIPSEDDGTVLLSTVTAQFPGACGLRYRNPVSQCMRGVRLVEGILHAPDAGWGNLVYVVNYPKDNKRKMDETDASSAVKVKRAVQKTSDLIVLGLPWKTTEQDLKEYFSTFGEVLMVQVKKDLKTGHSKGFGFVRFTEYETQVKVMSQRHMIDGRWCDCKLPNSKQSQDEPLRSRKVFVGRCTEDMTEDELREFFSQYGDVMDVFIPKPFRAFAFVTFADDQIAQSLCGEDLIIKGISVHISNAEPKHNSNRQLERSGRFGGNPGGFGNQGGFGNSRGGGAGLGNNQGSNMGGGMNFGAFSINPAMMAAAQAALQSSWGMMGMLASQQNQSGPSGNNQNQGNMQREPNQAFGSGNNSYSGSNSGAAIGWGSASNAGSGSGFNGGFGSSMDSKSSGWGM
# The list shows a part of the results. Only hits are listed; about a third recur on repeated control peptides.
# Columns and labels:
# Assay in all cases: PRISMA enrichment of interactor (LFQ) in peptide spot vs all other peptide spots (log2 fold change); higher = stronger / more specific binding of the interactor to the peptide
# [1] = biological target: BUB1B, O60566
# Description: (§1)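 PRISMA: 15-aa overlapping tiles (offset 8 aa) of 60 microproteins, plus SOS1/GLUT1 control peptides, were spot-synthesized on cellulose membranes in triplicate. Membranes were incubated with benzonase-treated HEK293T lysate, and bound proteins were identified by LC-MS/MS with LFQ. Enrichment is the log2 fold change of each protein in one spot versus all other spots. Only interactors passing the significance cutoff are listed.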
# [2] = biological target: BZW1, Q7L1Q6
# Description: as §1
# [3] = biological target: C7orf50, Q9BRJ6
# Description: as §1
# [4] = biological target: CAPZA1, P52907
# Description: as §1
# [5] = biological target: CHAF1B, Q13112
# Description: as §1
# [6] = biological target: COL4A1, P02462
# Description: as §1
# [7] = biological target: COQ5, Q5HYK3
# Description: as §1
# [8] = biological target: CTNNB1, P35222
# Description: as §1
# [9] = biological target: DUSP3, P51452
# Description: as §1
# [10] = biological target: EARS2, Q5JPH6
# Description: as §1
# [11] = biological target: GPATCH8, Q9UKJ3
# Description: as §1
# [12] = biological target: LARP7, Q4G0J3
# Description: as §1
# [13] = biological target: LENG1, Q96BZ8
# Description: as §1
# [14] = biological target: MAZ, P56270
# Description: as §1
# [15] = biological target: MCM2, P49736
# Description: as §1
# [16] = biological target: MRPS15, P82914
# Description: as §1
# [17] = biological target: MRPS31, Q92665
# Description: as §1
# [18] = biological target: NDUFB10, O96000
# Description: as §1
# [19] = biological target: NIFK, Q9BYG3
# Description: as §1
# [20] = biological target: NSUN2, Q08J23
# Description: as §1
# [21] = biological target: NTMT1, Q9BV86
# Description: as §1
# [22] = biological target: OTUB1, Q96FW1
# Description: as §1
# [23] = biological target: PCM1, Q15154
# Description: as §1
# [24] = biological target: POLR2E, P19388
# Description: as §1
# [25] = biological target: POP4, O95707
# Description: as §1
# [26] = biological target: PPP6R3, Q5H9R7
# Description: as §1
# [27] = biological target: PRRC2B, Q5JSZ5
# Description: as §1
# [28] = biological target: PTPMT1, Q8WUK0
# Description: as §1
# [29] = biological target: RAB5A, P20339
# Description: as §1
# [30] = biological target: RANBP2, P49792
# Description: as §1
# [31] = biological target: RBM3, P98179
# Description: as §1
# [32] = biological target: RBM7, Q9Y580
# Description: as §1
# [33] = biological target: RRP12, Q5JTH9
# Description: as §1
# [34] = biological target: SDC2, P34741
# Description: as §1
# [35] = biological target: SERPINH1, P50454
# Description: as §1
# [36] = biological target: SF3B4, Q15427
# Description: as §1
# [37] = biological target: SLU7, O95391
# Description: as §1
# [38] = biological target: SMARCC1, Q92922
# Description: as §1
# [39] = biological target: SOAT1, P35610
# Description: as §1
# [40] = biological target: SURF6, O75683
# Description: as §1
# [41] = biological target: TARDBP, Q13148
# Description: as §1
# [42] = biological target: THRAP3, Q9Y2W1
# Description: as §1
# [43] = biological target: TXNDC5, Q8NBS9
# Description: as §1
# [44] = biological target: VMP1, Q96GC9
# Description: as §1
# [45] = biological target: WDR5, P61964
# Description: as §1
# [46] = biological target: YWHAG, P61981
# Description: as §1
# [47] = biological target: ZC3H14, Q6PJT7
# Description: as §1
binder,measurement,setting,value
LGNNAGGTMHWNDTR [PVT1],PRISMA enrichment of interactor (log2),[1],5.58
same,PRISMA enrichment of interactor (log2),[2],5.88
same,PRISMA enrichment of interactor (log2),[3],9.26
same,PRISMA enrichment of interactor (log2),[4],4.56
same,PRISMA enrichment of interactor (log2),[5],4.46
same,PRISMA enrichment of interactor (log2),[6],4.89
same,PRISMA enrichment of interactor (log2),[7],5.46
same,PRISMA enrichment of interactor (log2),[8],4.74
same,PRISMA enrichment of interactor (log2),[9],5.07
same,PRISMA enrichment of interactor (log2),[10],6.3
same,PRISMA enrichment of interactor (log2),[11],6.11
same,PRISMA enrichment of interactor (log2),[12],4.61
same,PRISMA enrichment of interactor (log2),[13],4.15
same,PRISMA enrichment of interactor (log2),[14],5.23
same,PRISMA enrichment of interactor (log2),[15],7.77
same,PRISMA enrichment of interactor (log2),[16],10.5
same,PRISMA enrichment of interactor (log2),[17],7.33
same,PRISMA enrichment of interactor (log2),[18],7.08
same,PRISMA enrichment of interactor (log2),[19],4.65
same,PRISMA enrichment of interactor (log2),[20],5.63
same,PRISMA enrichment of interactor (log2),[21],5.91
same,PRISMA enrichment of interactor (log2),[22],12.4
same,PRISMA enrichment of interactor (log2),[23],7.33
same,PRISMA enrichment of interactor (log2),[24],5.18
same,PRISMA enrichment of interactor (log2),[25],9.53
same,PRISMA enrichment of interactor (log2),[26],5.23
same,PRISMA enrichment of interactor (log2),[27],5.62
same,PRISMA enrichment of interactor (log2),[28],5.3
same,PRISMA enrichment of interactor (log2),[29],6.8
same,PRISMA enrichment of interactor (log2),[30],5.9
same,PRISMA enrichment of interactor (log2),[31],6.45
same,PRISMA enrichment of interactor (log2),[32],4.37
same,PRISMA enrichment of interactor (log2),[33],4.84
same,PRISMA enrichment of interactor (log2),[34],4.46
same,PRISMA enrichment of interactor (log2),[35],4.89
same,PRISMA enrichment of interactor (log2),[36],5.49
same,PRISMA enrichment of interactor (log2),[37],7.14
same,PRISMA enrichment of interactor (log2),[38],6.13
same,PRISMA enrichment of interactor (log2),[39],5.76
same,PRISMA enrichment of interactor (log2),[40],5.23
same,PRISMA enrichment of interactor (log2),[41],5.7
same,PRISMA enrichment of interactor (log2),[42],6.34
same,PRISMA enrichment of interactor (log2),[43],6.81
same,PRISMA enrichment of interactor (log2),[44],4.33
same,PRISMA enrichment of interactor (log2),[45],7.34
same,PRISMA enrichment of interactor (log2),[46],5.41
same,PRISMA enrichment of interactor (log2),[47],5.96
